# Reference: the supplement of paper PMC4604168 (melanoma cell lines)
# The other results are listed elsewhere or left out. Many values rest on one well or one pass, so single values are uncertain.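 Imaging used 1,536-well plates; nuclei positive for cleaved PARP by antibody were divided by total DNA-stained nuclei to yield the apoptosis fraction. Doses for screening kept most cells viable, and cell lines differ markedly in resting and induced cleaved-PARP levels.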
# How the values were obtained:
# Test in all cases: cleaved PARP positive nuclei fraction relative to DMSO control; melanoma cells; higher = more apoptosis
# Details in all cases: library dose: low library concentration; 72 h
# 501Mel = tested on: 501Mel
# A101D = tested on: A101D
# A2058 = tested on: A2058
# A375 = tested on: A375
# C32 = tested on: C32
# CBRC013 = tested on: CBRC013 (line from a melanoma biopsy)
# CBRC014 = tested on: CBRC014 (line from a melanoma biopsy)
# CBRC016 = tested on: CBRC016 (line from a melanoma biopsy)
# CBRC017 = tested on: CBRC017 (line from a melanoma biopsy)
Compound,cleaved PARP positive nuclei fraction (501Mel),cleaved PARP positive nuclei fraction (A101D),cleaved PARP positive nuclei fraction (A2058),cleaved PARP positive nuclei fraction (A375),cleaved PARP positive nuclei fraction (C32),cleaved PARP positive nuclei fraction (CBRC013),cleaved PARP positive nuclei fraction (CBRC014),cleaved PARP positive nuclei fraction (CBRC016),cleaved PARP positive nuclei fraction (CBRC017)
"Oc1nc(-c2ccc(C(F)(F)F)cc2)nc2c1CSCC2 + Cn1cc(/C=C2\C(=O)Nc3cccnc32)c2ccccc21 [GW441756] (first compound 2 µM, partner dose 0.4 µM)",85.6%,57.2%,75.8%,254%,99.4%,141%,82.5%,89.9%,70.8%
"COc1cc2ncnc(Nc3ccc(Oc4ccccc4)cc3)c2cc1OC + O=C(O)C(=O)Nc1sc2c(c1C(=O)O)CCNC2 [TCS401] (first compound 2 µM, partner dose 1.66667 µM)",75.9%,74.8%,117%,45.1%,35.6%,28.4%,78.6%,128%,59%
"N#Cc1c(O)c2c(-c3ccc(-c4ccccc4O)cc3)csc2[nH]c1=O + Cn1cc(/C=C2\C(=O)Nc3cccnc32)c2ccccc21 [GW441756] (first compound 2 µM, partner dose 0.4 µM)",62.1%,90.7%,40.6%,74.6%,73.6%,108%,86.6%,63.4%,72.6%
"O=C1NC(=O)/C(=C/c2ccc(-c3ccc(F)cc3O)o2)S1 + CC(C)CCN1c2nc(Nc3cc(F)c(O)c(F)c3)ncc2N(C)C(=O)C1C [BID1870] (first compound 1 µM, partner dose 0.2 µM)",97.7%,180%,65.6%,10.3%,8.41%,134%,86.5%,48%,54.7%
"CCN(CC)CCCCNc1ncc2cc(-c3cc(OC)cc(OC)c3)c(NC(=O)NC(C)(C)C)nc2n1 + Cn1cc(/C=C2\C(=O)Nc3cccnc32)c2ccccc21 [GW441756] (first compound 0.1 µM, partner dose 0.4 µM)",47.4%,103%,55.9%,307%,45.8%,150%,94.6%,79.5%,72.4%
"CCCCCCCCCCCC1=C(O)C(=O)C=C(O)C1=O [Embelin] + CC(C)CCN1c2nc(Nc3cc(F)c(O)c(F)c3)ncc2N(C)C(=O)C1C [BID1870] (first compound 1.2 µM, partner dose 0.2 µM)",322%,125%,67.1%,15.4%,38.1%,88.4%,99.3%,21.1%,86.6%
"COc1ccc(-c2ccc3c(N4CCOCC4)nc(N4C[C@@H](C)O[C@@H](C)C4)nc3n2)cc1CO + CCN(CC)CCCCNc1ncc2cc(-c3cc(OC)cc(OC)c3)c(NC(=O)NC(C)(C)C)nc2n1 [PD173074] (first compound 0.02 µM, partner dose 0.1 µM)",39.4%,52.9%,73.5%,125%,66.5%,633%,189%,39.5%,132%
"COc1ccc(COc2ccc(Cc3cnc(N)nc3N)cc2OC)cc1 + Cc1cc([N+](=O)[O-])ccc1NS(=O)(=O)c1cc(Cl)ccc1Cl [FH535] (first compound 1 µM, partner dose 1 µM)",34.9%,60.1%,138%,53.5%,323%,44.7%,242%,257%,416%
"O=c1cc(-c2cccc3c2Sc2ccccc2S3)oc(N2CCOCC2)c1 + CC(C)CCN1c2nc(Nc3cc(F)c(O)c(F)c3)ncc2N(C)C(=O)C1C [BID1870] (first compound 1 µM, partner dose 0.2 µM)",78.6%,78.8%,80.5%,127%,38.3%,90.2%,113%,42.2%,79.7%
"O=C(Nc1ccccc1)c1cc([N+](=O)[O-])ccc1Cl + O=C(O)C(=O)Nc1sc2c(c1C(=O)O)CCNC2 [TCS401] (first compound 2 µM, partner dose 1.66667 µM)",77.7%,112%,72.8%,152%,68.6%,79.2%,82.2%,47.8%,80.6%
"COc1cc2c(Oc3ccc4[nH]c(C)cc4c3F)ncnc2cc1OCCCN1CCCC1 [cediranib] + COc1ccc(COc2ccc(Cc3cnc(N)nc3N)cc2OC)cc1 [GW2580] (first compound 0.4 µM, partner dose 1 µM)",160%,52.8%,200%,93.4%,149%,102%,94.9%,69.2%,185%
"COc1cc(N2CCC(N3CCN(C)CC3)CC2)ccc1Nc1ncc(Cl)c(Nc2ccccc2S(=O)(=O)C(C)C)n1 + O=c1cc(-c2cccc3c2Sc2ccccc2S3)oc(N2CCOCC2)c1 [KU55933] (first compound 0.08 µM, partner dose 1 µM)",128%,110%,150%,82.2%,185%,559%,105%,71.8%,91.7%
"COc1cc2ncnc(Nc3ccc(Oc4ccccc4)cc3)c2cc1OC + Oc1cc(-c2nc(-c3ccccc3)[nH]c2-c2ccncc2)ccc1Cl [L779450] (first compound 2 µM, partner dose 0.2 µM)",45.6%,59.6%,86.7%,129%,66.3%,181%,196%,80%,63.2%
"COc1cc2c(Oc3ccc4[nH]c(C)cc4c3F)ncnc2cc1OCCCN1CCCC1 [cediranib] + Oc1nc(-c2ccc(C(F)(F)F)cc2)nc2c1CSCC2 [XAV939] (first compound 0.4 µM, partner dose 2 µM)",148%,49.6%,61.9%,173%,76.8%,133%,63.1%,74.4%,75.5%
"NCC(=O)Nc1ccc(-n2nc(C(F)(F)F)cc2-c2ccc3c(ccc4ccccc43)c2)cc1 + O=c1cc(-c2cccc3c2Sc2ccccc2S3)oc(N2CCOCC2)c1 [KU55933] (first compound 1 µM, partner dose 1 µM)",579%,90.6%,104%,1270%,34.4%,158%,106%,114%,61.7%
"O=C(Nc1ccccc1)c1cc([N+](=O)[O-])ccc1Cl + Cn1cc(/C=C2\C(=O)Nc3cccnc32)c2ccccc21 [GW441756] (first compound 2 µM, partner dose 0.4 µM)",54.4%,123%,37.7%,357%,129%,390%,187%,118%,65.4%
"O=C(O)c1ccc(-c2c[nH]c3ncc(-c4ccccc4)cc23)cc1C1CCCC1 + Cc1cc([N+](=O)[O-])ccc1NS(=O)(=O)c1cc(Cl)ccc1Cl [FH535] (first compound 0.16 µM, partner dose 1 µM)",40.1%,213%,44.9%,256%,84.4%,194%,171%,1550%,357%
"Oc1cc(-c2nc(-c3ccccc3)[nH]c2-c2ccncc2)ccc1Cl + Oc1nc(-c2ccc(C(F)(F)F)cc2)nc2c1CSCC2 [XAV939] (first compound 0.2 µM, partner dose 2 µM)",179%,74.8%,125%,194%,115%,43.5%,88.5%,53.4%,76.3%
"Cc1cc([N+](=O)[O-])ccc1NS(=O)(=O)c1cc(Cl)ccc1Cl + Cn1cc(/C=C2\C(=O)Nc3cccnc32)c2ccccc21 [GW441756] (first compound 1 µM, partner dose 0.4 µM)",35.4%,224%,139%,260%,71.4%,55%,183%,1680%,390%
"NCC(=O)Nc1ccc(-n2nc(C(F)(F)F)cc2-c2ccc3c(ccc4ccccc43)c2)cc1 + COc1cc2ncnc(Nc3ccc(Oc4ccccc4)cc3)c2cc1OC [SrcI1] (first compound 1 µM, partner dose 2 µM)",623%,105%,91.5%,1310%,79%,442%,89.7%,63.7%,77.1%
"COc1ccc(-c2ccc3c(N4CCOCC4)nc(N4C[C@@H](C)O[C@@H](C)C4)nc3n2)cc1CO + O=S(=O)(c1ccccc1)N(CC(F)(F)F)c1ccc(C(O)(C(F)(F)F)C(F)(F)F)cc1 [T0901317] (first compound 0.02 µM, partner dose 1.4 µM)",86.7%,123%,116%,225%,93.9%,96%,90.7%,71.7%,48.5%
"COc1cc2c(Oc3ccc4[nH]c(C)cc4c3F)ncnc2cc1OCCCN1CCCC1 [cediranib] + COc1ccc2c(c1)CCC1C2CCC2(C)C(NCCCCCCN3C(=O)C=CC3=O)CCC12 [U73122] (first compound 0.4 µM, partner dose 0.4 µM)",87.9%,45%,61.7%,86.4%,43.9%,154%,142%,43.7%,95.9%
"COc1ccc(COc2ccc(Cc3cnc(N)nc3N)cc2OC)cc1 + c1cc(-c2cnn3cc(-c4ccc(OCCN5CCCCC5)cc4)cnc23)ccn1 [Dorsomorphin] (first compound 1 µM, partner dose 0.4 µM)",101%,49.7%,237%,37.4%,230%,71%,96.4%,60.1%,60.2%
"COc1ccc2c(c1)CCC1C2CCC2(C)C(NCCCCCCN3C(=O)C=CC3=O)CCC12 (stereo unspecified) + CCN(CC)CCCCNc1ncc2cc(-c3cc(OC)cc(OC)c3)c(NC(=O)NC(C)(C)C)nc2n1 [PD173074] (first compound 0.4 µM, partner dose 0.1 µM)",86.2%,159%,131%,50.4%,95.9%,159%,151%,108%,94.5%

# Limited to cleaved PARP positive nuclei fraction (A2058) (2 entries from above):
Compound | cleaved PARP positive nuclei fraction (A2058)
COc1cc2c(Oc3ccc4[nH]c(C)cc4c3F)ncnc2cc1OCCCN1CCCC1 [cediranib] + COc1ccc(COc2ccc(Cc3cnc(N)nc3N)cc2OC)cc1 [GW2580] (first compound 0.4 µM, partner dose 1 µM) | 200%
NCC(=O)Nc1ccc(-n2nc(C(F)(F)F)cc2-c2ccc3c(ccc4ccccc43)c2)cc1 + O=c1cc(-c2cccc3c2Sc2ccccc2S3)oc(N2CCOCC2)c1 [KU55933] (first compound 1 µM, partner dose 1 µM) | 104%
